Patent publication EP1495132B1, “SYSTEMIC MARKER FOR MONITORING ANTI-INFLAMMATORY AND ANTIOXIDANT ACTIONS OF THERAPEUTIC AGENTS” (priority 2002, dated 2003)
At least one structure is not confirmed: it was looked up by name or label, or the drawing left a doubt.

Legend:
[1] = system: specific lipid oxidation products formed by MPO; test: Example 11: plasma lipid oxidation products at baseline, after 4 week washout and 12 weeks after simvastatin (Fig. 16); type: in vivo, human; conditions: 12 weeks of simvastatin 10 mg PO QHS after a 4 week statin washout, n=15
[2] = system: nitrotyrosine; conditions: following consumption of a high fat or high glucose meal; simvastatin therapy; cited from earlier work

CCC(C)(C)C(=O)O[C@H]1C[C@@H](C)C=C2C=C[C@H](C)[C@H](CC[C@@H]3C[C@@H](O)CC(=O)O3)[C@H]21 [simvastatin]
plasma levels of the indicated HETEs and HODEs [1]: again reduced | Postprandial elevations in nitrotyrosine levels [2]: attenuated
